These are yes or no findings as the source states them, for the method shown. Binding seen in cells or lysates may run through a third protein. Binding can be weak; no strength is given. For part of these data: Where a sequence is shown, tags or fusion partners need not be part of it.
Assays:
[1] = target: microtubules of osteoclasts (polymerized from endogenous tubulin) (mouse (endogenous in RAW264.7-derived osteoclasts)); experiment: co-sedimentation; microtubule co-sedimentation from the high speed supernatant (100,000g) of osteoclast extracts in 1X BRB80, 1 mM DTT, 0.1% IGEPAL CA-630; tubulin polymerized with 2 mM GTP at 37 °C and paclitaxel; centrifuged at 100,000g over a 40% glycerol cushion; supernatant and pellet immunoblotted
[2] = target: microtubules of osteoclasts (polymerized from endogenous tubulin) (mouse (endogenous in RAW264.7-derived osteoclasts)); experiment: co-sedimentation; tubulin/microtubule fractionation of Arhgap10 KO #28 osteoclasts expressing doxycycline-induced myc-ARHGAP10 constructs; immunoblot (Fig. S2)
[3] = target: microtubules of HEK293T cells (microtubule fraction) (human (endogenous in HEK293T)); experiment: co-sedimentation; fractionation of HEK293T cells overexpressing myc-tagged constructs (24 h after transfection) into tubulin and microtubule fractions; immunoblot

Row | Binder | binding [1] | binding [2] | binding [3]
1 | endogenous ARHGAP10 protein (osteoclasts) (protein, UniProt Q6Y5D8 1-786) MGLQPLEFSDCYLDSPWFRERIRAHEAELERTNKFIKELIKDGKNLISATKSLSAAQRKFAHSLRDFKFEFIGDAETDDERCIDASLREFSNFLKNLEEQREIMALSVTETLIKPLEKFRKEQLGAVKEEKKKFDKETEKNYSLIDKHLTLSARKKDSHLQEADLQVEQNRQHFYELSLEYVCKLQEIQERKKFEFVEPMLSFFQGMFTFYHQGHELSKDFNHYKMELQINIQNTRNRFEGTRSEVEELMNKIRQNPKDQKRASQFTAEGYLYVQEKRPAPFGSSWVKHYCMYRKTAKKFNMIPFEHRSGGKLGDGEAFFLKECTKRHMDSTDRRFCFDIEAADRPGVPLTVQAFSEEERKQWLEALGGKEALFHTFNRAIVPRPEGGAQLDKMGFTILRKCISAVETRGINDQGLYRVVGVSSKVQRLLSMLMDVKMCNELDLENSADWEVKTVTSALKQYLRSLPEPLMTYELHRDFIVPAKSGSPESRVNAIHFLVHKLPEKNKEMLDILVKHLTNVSSHSKQNLMTVANLGVVFGPTLMRPQEETVAAIMDLKFQNIVVEILIENHEKIFRTSPDTTFAEPTCLSASPPNAPPRQSKRQGQRTKRPVAVYNLCLELEEGDSPSPLKEDPPSSSQDSLSTPSPTTSAAHGPPGLDGNHLAADGGSCGDATATTPSQTRPSMVQWLNMQSPTTPSSNPAGTPPSPRMSPFPLSPAASIVDKLPECVINRKARAVYPCEAEHSSELSFEIGAIFEDVQTSREPGWLEGTLNGKRGLIPQNYVKLL | binds | – | –
2 | myc-tagged ARHGAP10 R418A (GAP-dead mutant), re-expressed in Arhgap10 KO osteoclasts (protein, UniProt A1A4S6 1-786) MGLQPLEFSDCYLDSPWFRERIRAHEAELERTNKFIKELIKDGKNLIAATKSLSVAQRKFAHSLRDFKFEFIGDAVTDDERCIDASLREFSNFLKNLEEQREIMALSVTETLIKPLEKFRKEQLGAVKEEKKKFDKETEKNYSLIDKHLNLSAKKKDSHLQEADIQVEQNRQHFYELSLEYVCKLQEIQERKKFEFVEPMLSFFQGMFTFYHQGHELAKDFNHYKMELQINIQNTRNRFEGTRSEVEELMNKIRQNPKDHKRASQFTAEGYLYVQEKRPAPFGSSWVKHYCMYRKAAKKFNMIPFEHRSGGKLGDGEVFFLKECTKRHTDSIDRRFCFDIEAADRPGVSLTMQAFSEEERKQWLEALGGKEALSHSFNTAIIPRPEGNAQLDKMGFTIIRKCISAVETRGINDQGLYAVVGVSSKVQRLLSMLMDVKTCNEVDLENSADWEVKTITSALKQYLRSLPEPLMTYELHGDFIVPAKSGSPESRVNAIHFLVHKLPEKNKEMLDILVKHLTNVSNHSKQNLMTVANLGVVFGPTLMRPQEETVAALMDLKFQNIVVEILIENHEKIFRTPPDTTFPEPTCLSASPPNAPPRQSKRQGQRTKRPVAVYNLCLELEDGDNPYPSKEDTPTSSLDSLSSPSPVTTAVPGPPGPDKNHLLADGGSFGDWASTIPGQTRSSMVQWLNPQSPTTTSSNSAVTPLSPGSSPFPFSPPATVADKPPESIRSRKARAVYPCEAEHSSELSFEIGAIFEDVQTSREPGWLEGTLNGKRGLIPQNYVKLL | – | binds | –
3 | myc-tagged BAR-PH (aa 1-388) of ARHGAP10, WT (domain or fragment, UniProt A1A4S6 1-388) MGLQPLEFSDCYLDSPWFRERIRAHEAELERTNKFIKELIKDGKNLIAATKSLSVAQRKFAHSLRDFKFEFIGDAVTDDERCIDASLREFSNFLKNLEEQREIMALSVTETLIKPLEKFRKEQLGAVKEEKKKFDKETEKNYSLIDKHLNLSAKKKDSHLQEADIQVEQNRQHFYELSLEYVCKLQEIQERKKFEFVEPMLSFFQGMFTFYHQGHELAKDFNHYKMELQINIQNTRNRFEGTRSEVEELMNKIRQNPKDHKRASQFTAEGYLYVQEKRPAPFGSSWVKHYCMYRKAAKKFNMIPFEHRSGGKLGDGEVFFLKECTKRHTDSIDRRFCFDIEAADRPGVSLTMQAFSEEERKQWLEALGGKEALSHSFNTAIIPRPEGN | – | – | binds
4 | GEFH1 (protein, UniProt Q60875 1-985) MSRIESLTRARIDRSKEQATKTREKEKMKEAKDARYTNGHLFTTISVSGMTMCYACNKSITAKEALICPTCNVTIHNRCKDTLANCTKVKQKQQKAALLRNNTALQSVSLRSKTTTRERPTSAIYPSDSFRQSLLGSRRGLSSLSLAKSVSTTNIAGHFNDESPLGLRQILSQSTDSLNMRNRTLSVESLIDEGVEVFYNELMSDFEMDEKDFEADSWSLAVDSSFLQQHKKEVMKKQDVIYELIQTELHHVRTLKIMTRLFRTGMLEELQMEPEVVQGLFPCVDELSDIHTRFLNQLLERRRQALCPGSTRNFVIHRLGDLLISQFSGSNAEQMRKTYSEFCSRHTKALKLYKELYARDKRFQQFIRKMTRSAVLKRHGVQECILLVTQRITKYPVLINRILQNSHGVEEEYQDLASALGLVKELLSNVDQDVHELEKEARLQEIYNRMDPRAQTPVPGKGPFGRDELLRRKLIHEGCLLWKTATGRFKDVLLLLMTDVLVFLQEKDQKYIFTSLDKPSVVSLQNLIVRDIANQAKGMFLISSGPPEMYEVHAASRDDRTTWIRVIQQSVRLCPSREDFPLIETEDKAYLRRIKTKLQQKNQALVELLQKNVELFAEMVHFQALKAGFVGMPPPALPRGLFRLESFESLRGERLLKDALREVEGLKDLLLGPCVDLPMTSREPALPLDSDSGSCPGVTANGEARTFNGSIELCRADSDSSQKDRNGNQLRSPQEEVLQPLINLYGLLHGLQAVVVQQERLMEALFPEGPERWEKLSRANSRDGEAGRAAVASVTPEKQATELALLQRQHTLLQEELRRCQRLGEERATEAGSLEARLRESEQARALLEREAEEIRRQLAALGQNEPLPAEAPWARRPLDPRRRSLPAGDALYLSFNPPQPSRGHDRLDLPVTVRSLHRPFDDREAQELGSPEDRLQDSSDPDTGSEEEVSSRLSPPHSPRDFTRMQDIPEETESRDGEPTASES | binds | – | –

The remaining lines, values ahead:

Row | binding [1] | binding [2] | binding [3] | Binder
5 | – | binds weakly | – | myc-tagged full-length ARHGAP10, K37,41,44E, re-expressed in Arhgap10 KO osteoclasts (protein, UniProt A1A4S6 1-786) MGLQPLEFSDCYLDSPWFRERIRAHEAELERTNKFIEELIEDGENLIAATKSLSVAQRKFAHSLRDFKFEFIGDAVTDDERCIDASLREFSNFLKNLEEQREIMALSVTETLIKPLEKFRKEQLGAVKEEKKKFDKETEKNYSLIDKHLNLSAKKKDSHLQEADIQVEQNRQHFYELSLEYVCKLQEIQERKKFEFVEPMLSFFQGMFTFYHQGHELAKDFNHYKMELQINIQNTRNRFEGTRSEVEELMNKIRQNPKDHKRASQFTAEGYLYVQEKRPAPFGSSWVKHYCMYRKAAKKFNMIPFEHRSGGKLGDGEVFFLKECTKRHTDSIDRRFCFDIEAADRPGVSLTMQAFSEEERKQWLEALGGKEALSHSFNTAIIPRPEGNAQLDKMGFTIIRKCISAVETRGINDQGLYRVVGVSSKVQRLLSMLMDVKTCNEVDLENSADWEVKTITSALKQYLRSLPEPLMTYELHGDFIVPAKSGSPESRVNAIHFLVHKLPEKNKEMLDILVKHLTNVSNHSKQNLMTVANLGVVFGPTLMRPQEETVAALMDLKFQNIVVEILIENHEKIFRTPPDTTFPEPTCLSASPPNAPPRQSKRQGQRTKRPVAVYNLCLELEDGDNPYPSKEDTPTSSLDSLSSPSPVTTAVPGPPGPDKNHLLADGGSFGDWASTIPGQTRSSMVQWLNPQSPTTTSSNSAVTPLSPGSSPFPFSPPATVADKPPESIRSRKARAVYPCEAEHSSELSFEIGAIFEDVQTSREPGWLEGTLNGKRGLIPQNYVKLL
6 | – | – | binds | myc-tagged full-length human ARHGAP10, WT (HEK293T) (protein, UniProt A1A4S6 1-786) MGLQPLEFSDCYLDSPWFRERIRAHEAELERTNKFIKELIKDGKNLIAATKSLSVAQRKFAHSLRDFKFEFIGDAVTDDERCIDASLREFSNFLKNLEEQREIMALSVTETLIKPLEKFRKEQLGAVKEEKKKFDKETEKNYSLIDKHLNLSAKKKDSHLQEADIQVEQNRQHFYELSLEYVCKLQEIQERKKFEFVEPMLSFFQGMFTFYHQGHELAKDFNHYKMELQINIQNTRNRFEGTRSEVEELMNKIRQNPKDHKRASQFTAEGYLYVQEKRPAPFGSSWVKHYCMYRKAAKKFNMIPFEHRSGGKLGDGEVFFLKECTKRHTDSIDRRFCFDIEAADRPGVSLTMQAFSEEERKQWLEALGGKEALSHSFNTAIIPRPEGNAQLDKMGFTIIRKCISAVETRGINDQGLYRVVGVSSKVQRLLSMLMDVKTCNEVDLENSADWEVKTITSALKQYLRSLPEPLMTYELHGDFIVPAKSGSPESRVNAIHFLVHKLPEKNKEMLDILVKHLTNVSNHSKQNLMTVANLGVVFGPTLMRPQEETVAALMDLKFQNIVVEILIENHEKIFRTPPDTTFPEPTCLSASPPNAPPRQSKRQGQRTKRPVAVYNLCLELEDGDNPYPSKEDTPTSSLDSLSSPSPVTTAVPGPPGPDKNHLLADGGSFGDWASTIPGQTRSSMVQWLNPQSPTTTSSNSAVTPLSPGSSPFPFSPPATVADKPPESIRSRKARAVYPCEAEHSSELSFEIGAIFEDVQTSREPGWLEGTLNGKRGLIPQNYVKLL

Source: article PMC12509757
